Reference: PubChem BioAssay AID588499 (NMMLSC, 2011)
The whole screen tested about 360,000 compounds, of which about 610 (0.17%) were called active. The shares of active, inactive and inconclusive entries below differ from those in the screen. Cut-off read from the data, not from the text of the source: active = inhibition above about 30%; inconclusive = no clear call, values can overlap the other calls; inactive = below that.

Each molecule was assayed on Botulinum neurotoxin type A light chain protease (Clostridium botulinum A str. ATCC 3502) (assay: blockers of BoNT/A LC substrate cleavage – biochemical, flow cytometry, MLPCN library, primary screen (AID 588499; note: plate controls were buffer without enzyme for full effect and enzyme alone for no effect)). Settings: multiplex microsphere protease substrate cleavage, at 10 µM, stronger effect = higher value.
CCC(C)N1C(=O)/C(=C/c2c(NCCCOC(C)C)nc3c(C)cccn3c2=O)SC1=S (centres undefined) was tested, and the inhibition was inconclusive: -61.8%. For Cn1ncc(C(=O)N=S(C)(=O)c2ccccc2)c1[N+](=O)[O-] (centres undefined), the inhibition was inconclusive: -48.9%. COC(=O)C1(C(=O)OC)NOC2C(=O)N(c3ccccc3)C(=O)C21 (centres undefined) was tested, and the inhibition was inconclusive: 1.3%. For Cc1oc(-c2ccccc2)cc1C(=O)NCc1ccncc1, the inhibition was inconclusive: 15.9%. With N/C(CCS(=O)(=O)c1ccc(Cl)cc1)=N\OC(=O)c1ccccc1Cl the inhibition was inconclusive: 16.4%. In the case of CC(=O)NNC(=O)c1[nH]c2ccc(Cl)cc2c1-c1ccccc1, the inhibition is reported as inconclusive: -17.8%. COC(=O)COc1ccc(S(=O)(=O)Nc2ccccc2SC)cc1 was tested, and the inhibition was inconclusive: -1.7%. With COc1ccc(NC(=O)CSc2nnc(-c3ccccc3C)n2N)cc1OC the inhibition was inconclusive: -0.5%. For COc1ccc(N2CCN(C3CC(=O)NC3=O)CC2)cc1 (centres undefined), the inhibition was inconclusive: -6.1%. In the case of O=C(CN1C(=O)NC2(CCCC2)C1=O)OCCOc1ccc(Br)cc1, the inhibition is reported as inactive: -1.7%. O=c1c2ccccc2nc(-c2ccccc2)n1-c1cccnc1 was tested, and the inhibition was inconclusive: -0.9%. With COc1ccccc1Oc1coc2c(CN3CCN(C)CC3)c(O)ccc2c1=O the inhibition was inactive: 0.3%. COc1ccc(C(=O)CC(=O)c2ccc(OC)cc2)cc1 was tested, and the inhibition was inactive: -1.9%. With CC(C)=NN1C(=O)c2ccccc2NC1(C)C the inhibition was inconclusive: 3%. In the case of Cc1ccc(C(C(=O)NC2CCCCC2)N(Cc2ccco2)C(=O)Cc2c[nH]c3ccccc23)o1 (centres undefined), the inhibition is reported as inconclusive: -8.9%. Cc1nnc(SCC(=O)Nc2nsc(-c3ccccc3)n2)s1 was tested, and the inhibition was inactive: -4.9%. COc1cc(NC(=O)c2ccc3snnc3c2)cc(OC)c1 was tested, and the inhibition was inconclusive: 2.2%. Cc1nc2c([nH]c3ccc(Br)cc32)s1 was tested, and the inhibition was inactive: -0.4%. With COc1ccc(N2C(=O)c3ccccc3NC2c2ccc(OC)c(CN3CCOCC3)c2)cc1 (centres undefined) the inhibition was inconclusive: -43.8%. In the case of CN(C)C=Nc1c(Br)cc(Br)c2nonc12, the inhibition is reported as active: 70.7%. For Cc1ccc(NCc2ccc(O)c3ncccc23)cc1C, the inhibition was inactive: -1.3%. In the case of O=C(NCCc1ccc(F)cc1)Nc1ccc([N+](=O)[O-])cc1, the inhibition is reported as inactive: 0.7%. With NC1=NC(=O)C(=Cc2ccccc2)S1 the inhibition was inactive: -0.1%. With COC(=O)c1ccc(COc2ccc(-c3nn[nH]n3)cc2)cc1 the inhibition was active: 48.8%. Cc1cc(N/C=C(\C#N)S(=O)(=O)c2ccc(Cl)cc2)nc(C)n1 was tested, and the inhibition was inconclusive: -53.1%. In the case of O=C1N/C(=C/c2cccn2-c2ccc(F)cc2)C(=O)N1Cc1ccccc1, the inhibition is reported as inconclusive: -2.1%. With CC(CN1CCN(C)CC1)OC(=O)c1cccc(F)c1 (centres undefined) the inhibition was inactive: -0.4%. For CN(CCc1ccccc1)c1cc2c(c3c1ccn3C)C1CCC2C1 (centres undefined), the inhibition was inactive: -2.2%. O=C(C(Cl)Cl)N1c2ccccc2OCC1c1ccccc1 (centres undefined) was tested, and the inhibition was inconclusive: -1%. For CCN(CC)Cc1c(C(=O)N/N=C/c2cccc(OCc3cccc(Cl)c3)c2)nnn1-c1nonc1N, the inhibition was inactive: -2.4%. With CCSc1nnc([C@@H](NC(=O)OC(C)(C)C)C(C)C)o1 the inhibition was inactive: 0.2%. For O=C(CSC1=NS(=O)(=O)c2ccccc2N1)c1ccccc1, the inhibition was inconclusive: 2.6%. NNC(=O)c1ccc(Oc2cc(Cl)cc(Cl)c2)o1 was tested, and the inhibition was inconclusive: 1.7%. For CC(=O)Nc1ccc(C(=O)CSc2nnc(Cc3ccccc3)o2)cc1, the inhibition was inconclusive: -0.9%. CN(CCO)c1nc2c(c(=O)n(Cc3ccc(Cl)cc3)c(=O)n2C)n1C was tested, and the inhibition was inactive: -7.7%. For S=c1[nH]nc2nnc3ccccc3n12, the inhibition was inconclusive: 5.5%. For O=S(=O)(c1ccc(SCc2ccc(Br)cc2)nc1)N1CCOCC1, the inhibition was inconclusive: -7.9%. Cc1ccccc1OCCC(=O)OCC(=O)c1c(N)n(CC(C)C)c(=O)n(C)c1=O was tested, and the inhibition was inactive: -0.2%. In the case of Cc1cc(N)n(-c2ccc3ccccc3c2)n1, the inhibition is reported as inconclusive: -232%. For COCCNC(=O)C(c1ccc(F)cc1)N(C(=O)CCC(=O)Nc1nccs1)c1cccc(C)c1 (centres undefined), the inhibition was inactive: -0.5%. For COC(=O)C1(NC(=O)NC2CCCCC2)CCCCC1, the inhibition was inconclusive: -39.6%. In the case of COc1ccc(C(=O)CN(C(=O)c2ccc(Cl)cc2)N2C(=O)C3CCCCC3C2=O)cc1 (centres undefined), the inhibition is reported as inconclusive: 46.4%. CC(C)[N+]1=C2C=CC=CC=C2SC12C([N+](=O)[O-])=CC(=[N+]([O-])[O-])C=C2[N+](=O)[O-] (centres undefined) was tested, and the inhibition was active: 40.9%. Cc1cc(-c2nc(C)c(C(=O)NN)s2)no1 was tested, and the inhibition was inconclusive: -16.1%. For c1ccc2[nH]c(NCCCN3CCOCC3)nc2c1, the inhibition was inconclusive: -4.2%. With Cc1ccc(NC(=O)c2ccc(S(=O)(=O)Nc3c(C)n(C)n(-c4ccccc4)c3=O)cc2)nc1 the inhibition was inconclusive: 1%. In the case of O=C(Cc1nc2ccccc2[nH]1)N/N=C/c1ccccc1, the inhibition is reported as inactive: -0.1%. For COc1ccc(-c2c(NC(C)=O)n(C)c3ccccc3c2=O)cc1, the inhibition was inconclusive: 21.2%. For CCn1c(SCC(=O)N2CCC(C)CC2)nc2c1c(=O)n(C)c(=O)n2C, the inhibition was inactive: -1.1%. CCCOc1ccc(C2NC(=O)NC(c3ccccc3)=C2C(C)=O)cc1OCC (centres undefined) was tested, and the inhibition was inconclusive: -2.2%. O=C1c2ccccc2-c2nc3ccccc3n21 was tested, and the inhibition was inconclusive: 9.9%. For CC(=O)C1=C(C)OC(N)=C(C#N)C1c1cccc2ccccc12 (centres undefined), the inhibition was inconclusive: 20.1%. CCCN(CC(=O)Nc1ccccc1OC)C(=O)CCC(=O)c1ccc(OCC)cc1 was tested, and the inhibition was inactive: -2.3%. With COc1ccc2[nH]c(C(=O)N(C)c3ccc(F)cc3F)cc2c1 the inhibition was inconclusive: -18.3%. With O=C1CC(N(C(=O)c2ccco2)c2ccc(F)cc2)C(=O)N1c1ccc(F)cc1 (centres undefined) the inhibition was inconclusive: 6.6%. In the case of NC(=O)C1CCN(Cc2nc3cc(Cl)ccc3c(=O)[nH]2)CC1, the inhibition is reported as inactive: 0.2%. For CCn1cc(C(=O)NCCCOC)c(=O)c2cc(S(=O)(=O)N3CCC(C)CC3)ccc21, the inhibition was inactive: 1.2%. In the case of CCCCN(C(=O)c1cccc(-n2cnnn2)c1)c1c(N)n(CCCC)c(=O)[nH]c1=O, the inhibition is reported as inactive: 0%. In the case of Cc1cc(Br)ccc1-n1[nH]c(C)c(C=Nc2cccc3nsnc23)c1=O, the inhibition is reported as inactive: 14.3%.
